## Percent effect of library compounds

Data taken from ChEMBL document CHEMBL3988442, “University of Dundee, Small-Polar-MMV Screening Library” (2021).

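Phenotypic screen: M. tuberculosis growth, cholesterol and DPPC medium, 4 days; the read-out is not stated. Concentration: 50 µM. Higher reads as more growth inhibition (inferred: compounds with an IC50 in retests scored well above the rest). Size under these conditions: about 69,000 compounds, about 370 of them at 50% or above in at least one test.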

Results are given as percent effect. The record does not define 0% and 100%; most values in the screen are far below 50% and negative numbers occur (in some assays of this library far below -100). This is an unselected part of the compounds tested. Two or more numbers in one place are separate tests of the same structure; such repeats can differ widely.

For CC(C)NC(=O)CC1CC2(CCN(S(C)(=O)=O)CC2)c2ccccc21 (centres unmarked) the result was -4.897%. With Cc1cccc(CN2CCCn3c(nnc3CN3CCCC3=O)C2)n1.O=C(O)C(F)(F)F the screen gave 1.753%. For NC(=O)C1CCCN(c2ccc(CNC(=O)c3csnn3)cc2)C1 (centres unmarked) the result was -27.51%. Result for Cc1ncc(CO)c(CN2CCCC2c2nc3c(C)cccc3[nH]2)c1O (centres unmarked) was -7.811% & -1.662%. With Cc1n[nH]c(C)c1-c1nccnc1CC1CCCN(C)C1 (centres unmarked) the screen gave -1.148%. With O=C(NCCNC1CCCC1)c1cccs1 the screen gave -8.782%. For Cn1cc(CN2CCCC(n3c(=O)oc4ccccc43)C2)cn1 (centres unmarked) the result was 1.276% & -1.498%.

Result for N#Cc1ccccc1C(=O)N1C[C@@H](CN2CCCCC2)[C@@H](CO)C1 was -10.81%. Cc1ccccc1-n1nc(C)c(CN(C)C(C)Cc2ccccn2)c1C.O=C(O)CC(O)(CC(=O)O)C(=O)O (centres unmarked) gave -4.161% & -2.678%. Oc1cc(CN2CCCCC2c2cccnc2)nc2c(F)cccc12 (centres unmarked) gave -2.12%. CNS(=O)(=O)CC(=O)N1CCC(c2ccc(F)c(F)c2)CC1 gave -6.106%. Cc1cc(CN2CCN(S(C)(=O)=O)CC(C(=O)N(C)C)C2)no1 (centres unmarked) gave -1.588%. c1ccc2c(c1)CN(c1ncnc3c1CCNC3)CCO2 read 2.194%. Result for CN(Cc1nncn1-c1cccc(C(F)(F)F)c1)S(C)(=O)=O was 6.14%.

Result for O=C(O)C(F)(F)F.[H][C@@]12CCN(Cc3ccc(F)c(F)c3)[C@]1([H])CC[C@@H](C(=O)NCC1CC1)O2 was 21.52%. Result for CN(C)C(=O)CCNC(=O)Nc1sc2ccccc2c1Cl was 2.029%. CC(C)=CCC/C(C)=C/CN1CCN(C)C2(CCNC(=O)CC2)C1 (centres unmarked) gave 4.787%. Cc1cnn(CCCn2ncc(N3CCC(CN)C3)cc2=O)c1 (centres unmarked) read -21.18%. Result for Cc1cc(N2CCN(C(=O)c3cc(Cl)c[nH]3)CC2)nc(C(C)C)n1 was -14.25% & -3.784%. For NC(=O)CN1CCCN(C(=O)Cc2ccc3ccccc3c2)CC1 the result was -23.59%. For COc1cc2nc3n(c(=O)c2cc1OC)CCN(C)CC3 the result was -18.26%.

CN(C)CCNC(=O)c1ccc2c(-c3nccs3)noc2c1 gave -5.563%. With Cc1nc(CN2CCc3ncnc(C4CCOC4)c3CC2)cs1.O=C(O)C(F)(F)F (centres unmarked) the screen gave 5.045%. CN1CCOCC2(CCCN(C(=O)c3ccccc3F)C2)C1.O=C(O)C(F)(F)F (centres unmarked) read -30.62%. Cl.NC(=O)c1ccc(C2CCCNC2)nc1 (centres unmarked) read -5.38%. Result for CC(NC(=O)C(C)(C)C#N)c1ccc(OCC2CC2)c(F)c1 (centres unmarked) was -13.71%. Result for [H][C@@]12CC(=O)/C(=C(/C)NC(=O)c3ccco3)[C@]1([H])C2(C)C was 7.257%. [H][C@@]12CCN(C(=O)c3ccoc3C)C[C@@]1([H])O[C@H](c1nnc(C3CC3)o1)C2 gave 15.53%.

For Cc1cc(C)n(CCNc2ncnc3c2NC(=O)CN3)n1 the result was -7.724%.

For reference, 2 entries once more:

{"smiles": "Cc1cc(CN2CCN(S(C)(=O)=O)CC(C(=O)N(C)C)C2)no1", "stereo": "centres unmarked", "effect": -1.588}
{"smiles": "Cc1ncc(CO)c(CN2CCCC2c2nc3c(C)cccc3[nH]2)c1O", "stereo": "centres unmarked", "effect": "-7.811 & -1.662"}